Laboratory results reported in patent US20190070170A1, “METHOD OF S[…]-1” (Macau University of Science and Technology, priority 2017, published 2019).
At least one structure is not confirmed: it was looked up by name or label, or the drawing left a doubt.

Tests used:
PGE2 [1] = assay: PGE2 production in LPS-stimulated rat peritoneal macrophages (ELISA); assay type: cell-based; settings: SIN 160, 320 or 640 μM or 0.5 μM DEX 1 h, then LPS 1 μg/ml 24 h
Method: (§1) Sprague-Dawley (SD) rats from the University of Hong Kong were housed in cages with free access to food and water. Peritoneal macrophages of SD rats were isolated as described in Liu J. et al., Pharmacological research 2016, 111:303-315. Briefly, untreated rats were sacrificed and after laparotomy, about 50 ml cold sterile Hank's balanced salt solution (HBSS) was used to lavage the peritoneal cavity at twice, and then the peritoneal lavage fluid was collected and centrifuged at 1500 rpm for 10 min. The cell pellets was suspended at a density 1.5×10^6 cells/ml in pre-hearted DMEM medium with 10% heat-inactivated FBS, penicillin G (100 units/ml), streptomycin ([…]), and L-glutamine (2 mM), followed by seeding in 6-well plates at a density of 4.5×10^6 cells and incubation for 2 h. Then the medium were discarded to remove the non-adherent cells. The adherent cells were further washed for two times with pre-heated DMEM medium to remove floating cells. Next, cells were pre-treated with various concentration of SIN for 1 h, followed by stimulation with LPS (1 μg/ml).
(§2) RAW264.7 cells and rat peritoneal macrophages were seeded in a 96-well plate at density of 1.4×10^4 and 1.5×10^5 cells, respectively. […] The optical density was measured at 570 nm against a reference wavelength of 650 nm using a microplate UV/VIS spectrophotometer (Tecan, Mannedorf, Switzerland). […]

PGE2 [2] = assay: PGE2 production in LPS-stimulated RAW264.7 cells (ELISA); assay type: cell-based, mouse; settings: SIN 160, 320 or 640 μM or 0.5 μM DEX 1 h, then LPS 100 ng/ml 18 h
Method: (§3) RAW264.7 and A549 cell lines were obtained from American Type Culture Collection (ATCC, Manassas, Va., USA) and maintained in DMEM (RAW264.7) or 1640 (A549) medium containing 10% FBS (Gibco-BRL, Grand Island, N.Y., USA) and antibiotics at 37° C. in a humidified atmosphere containing 5% CO2. RAW264.7 cells were plated in 6-well plates at a density of 4×10^5 cells and incubated for 24 h, then the cells were pretreated with different concentrations of SIN for 1 h before stimulating with LPS (100 ng/ml). A549 cells were seeded in 6-well plates at a density of 1×10^5 cells and incubated for 24 h, followed by pretreatment with SIN. A549 cells were then stimulated by IL-1β (1 ng/ml).
(§4) RAW264.7 cells and rat peritoneal macrophages were seeded in a 96-well plate at density of 1.4×10^4 and 1.5×10^5 cells, respectively. Various concentration of SIN was added to the cells for 1 hour before LPS stimulation. After stimulation with LPS for 18 h (RAW264.7 cells) or 24 h (rat peritoneal macrophages), MTT solution was added to each well and incubated for another 4 hours. 100 μl 10% SDS-HCl solution was added to each well for overnight to dissolve the formazan dye. The optical density was measured at 570 nm against a reference wavelength of 650 nm using a microplate UV/VIS spectrophotometer (Tecan, Mannedorf, Switzerland). […]

mPGES-1 [3] = assay: mPGES-1 protein expression in LPS-activated rat peritoneal macrophages (western blotting); assay type: cell-based; settings: SIN or DEX 1 h, LPS 24 h
Method: as §1
(§5) Whole-cell and nuclear proteins were obtained using RIPA lysis buffer (CST, Boston, Mass., USA) and Nuclear and Cytoplasmic Extraction Reagents kit from Thermo Scientific (Asheville, N.C., USA), respectively. […] The levels of protein expression were measured using Odyssey v3.0 software from Li-COR (Lincoln, Nebr., USA).

p-cPLA2 = p-cPLA2 protein expression in LPS-activated rat peritoneal macrophages (western blotting); assay type: cell-based; settings: SIN or DEX 1 h, LPS 24 h
Method: as §1, §5

PGI2 = PGI2 level in culture supernatants of LPS-activated rat peritoneal macrophages (ELISA); assay type: cell-based; settings: LPS-stimulated rat peritoneal macrophages, culture supernatant
Method: as §1, §2

PGD2 = PGD2 level in culture supernatants of LPS-activated rat peritoneal macrophages (ELISA); assay type: cell-based; settings: LPS-stimulated rat peritoneal macrophages, culture supernatant
Method: as §1, §2

[4] = system: carrageenan-induced paw edema; assay: Carrageenan-induced rat paw edema model; assay type: in vivo, SD rats; settings: DEX 2 mg/kg i.p. 2 h before carrageenan
mPGES-1 [5] = assay: mPGES-1 protein in microsomes of inflamed paw of carrageenan-induced rats (western blotting); assay type: in vivo, SD rats; settings: SIN 25, 50, 100 mg/kg or DEX 2 mg/kg i.p.
NO [6] = assay: NO production in LPS-stimulated rat peritoneal macrophages (Griess reagent); assay type: cell-based; settings: pretreatment 1 h, LPS 1 μg/ml 24 h
Method: as §1, §2

NO [7] = assay: NO production in LPS-stimulated RAW264.7 cells (Griess reagent); assay type: cell-based, mouse; settings: pretreatment 1 h, LPS 100 ng/ml 18 h
Method: as §3, §4

iNOS [8] = assay: iNOS protein level in LPS-stimulated rat peritoneal macrophages (immunoblotting); assay type: cell-based; settings: pretreatment 1 h, LPS 1 μg/ml 24 h
Method: as §1, §5

iNOS [9] = assay: iNOS protein level in LPS-stimulated RAW264.7 cells (immunoblotting); assay type: cell-based, mouse; settings: pretreatment 1 h, LPS 100 ng/ml 18 h
Method: as §3
Whole-cell and nuclear proteins were obtained using RIPA lysis buffer (CST, Boston, Mass., USA) and Nuclear and Cytoplasmic Extraction Reagents kit from Thermo Scientific (Asheville, N.C., USA), respectively. For immunoblotting, proteins from whole-cell, cytoplasm, nuclear, and microsomal fractions were separated on SDS-PAGE, then transferred onto a nitrocellulose membrane from GE Healthcare Life Sciences (Buckinghamshire, UK), and incubated with 5% skimmed milk at room temperature for 1 h. […] The levels of protein expression were measured using Odyssey v3.0 software from Li-COR (Lincoln, Nebr., USA).

TNF-α [10] = assay: TNF-α level in LPS-stimulated rat peritoneal macrophages (ELISA); assay type: cell-based; settings: pretreatment 1 h, LPS 1 μg/ml 24 h
Method: as §1, §2

TNF-α [11] = assay: TNF-α level in LPS-stimulated RAW264.7 cells (ELISA); assay type: cell-based, mouse; settings: pretreatment 1 h, LPS 100 ng/ml 18 h
Method: as §3, §4

IL-6 = IL-6 level in LPS-stimulated rat peritoneal macrophages (ELISA); assay type: cell-based; settings: pretreatment 1 h, LPS 1 μg/ml 24 h
Method: as §1, §2

C[C@@H]1C[C@H]2[C@@H]3CCC4=CC(=O)C=C[C@]4(C)[C@@]3(F)[C@@H](O)C[C@]2(C)[C@@]1(O)C(=O)CO [DEX, Dexamethasone, reference compound] was tested, and the PGE2 production (PGE2 [1]) was “decreased PGE2 release”, the PGE2 production (PGE2 [2]) was “decreased PGE2 release” and the mPGES-1 protein expression (mPGES-1 [3]) was “down-regulating”. For the same compound, the p-cPLA2 protein expression (p-cPLA2) was “down-regulating”, the “level of PGI2” value (PGI2) was “obviously inhibited” and the “level of PGD2” value (PGD2) was “obviously inhibited”. For the same compound, the “paw edema (percentage of increase in paw volume)” value [4] was “significantly inhibited”, the “mPGES-1 protein expression in inflamed paw tissues” value (mPGES-1 [5]) was “remarkably decreased” and the “NO production (nitrite)” value (NO [6]) was “significantly inhibited”. For the same compound, the “NO production (nitrite)” value (NO [7]) was “significantly inhibited”, the iNOS expression (iNOS [8]) was “significantly inhibited” and the iNOS expression (iNOS [9]) was “significantly inhibited”. For the same compound, the TNF-α production (TNF-α [10]) was “significantly inhibited”, the TNF-α production (TNF-α [11]) was “significantly inhibited” and the IL-6 production (IL-6) was “significantly inhibited”.
